Measured values: patent US20110245351A1, “MEDICAL ADHESIVE FOR SURGERY” (BAYER MATERIALSCIENCE AG, priority 2008, published 2011)

Experiment: Gluing of beef pieces as tissue substitute, stability of the adhesive layer tested by pulling
Parameters: key to Adhesive strength: ++: high adhesive strength, the tissue tears on pulling; −: low adhesive strength, the adhesive suture detaches from the tissue
Conditions: for Adhesive strength: glued beef pieces, pulling
Experimental: As a tissue substitute, beef was used. In each case, two pieces of meat (1=4 cm, h=0.3 cm, b=1 cm) were spread with the adhesive at the ends over a 1 cm width and glued overlapping. In each case, the stability of the adhesive layer was tested by pulling.
1 g of the prepolymer A-1 were stirred well in a beaker with an equivalent quantity of dimethyl 2,2′-(pentane-1,5-diylbis(azandiyl))bis(4-methylpentanoate). Directly after this, the reaction mixture was applied thinly onto the tissue to be glued. […] After 2 mins, the surface of the adhesive was no longer tacky.

Compound | Adhesive strength | Adhesion to tissue (1 g prepolymer A-1 with equivalent quantity of diamine, applied thinly onto tissue)
CCOC(=O)C(C)NCCCCNC(C)C(=O)OCC (centres unmarked) | − | 
COC(=O)C(CC(C)C)NCCCCCNC(CC(C)C)C(=O)OC (centres unmarked) [Example 2, Dimethyl 2,2′-(pentan-1,5-diylbis(azandiyl))bis(4-methylpentanoate)] |  | strong adhesion
COC(=O)C(NCCCNC(C(=O)OC)C(C)C)C(C)C (centres unmarked) | ++ | 
COC(=O)C(CC(C)C)NCCCCCNC(CC(C)C)C(=O)OC (centres unmarked) [drawing 17] | ++ | 
CCC(C)C(NCCCNC(C(=O)OC)C(C)CC)C(=O)OC (centres unmarked) | ++ | 
CCOC(=O)C(C)NCCCCCNC(C)C(=O)OCC (centres unmarked) | − | 
COC(=O)C(Cc1ccccc1)NCCCNC(Cc1ccccc1)C(=O)OC (centres unmarked) | − | 
COC(=O)C(Cc1ccccc1)NCCCCCCNC(Cc1ccccc1)C(=O)OC (centres unmarked) | − | 
